Assay results from US12435116B2, “Compounds, compositions, methods, and uses for treating insulin resistance, type 2 diabetes and metabolic syndrome” (priority 2019, dated 2025).
At least one structure is not confirmed: it was looked up by name or label, or the drawing left a doubt.

Test system: Mice
Experiment: Glucose Tolerance Test (ipGTT) in mice dosed daily for five days
Assay type: in vivo

CCc1ccc(CCOc2ccc(CC3SC(=O)NC3=O)cc2)nc1 (centres unmarked) [Pioglitazone]
Avg Glucose (90 min after IP dextrose 2 g/kg, Pioglitazone 30 mg/Kg daily for five days): 250 µg/dL | difference in glucose tolerance between treatment groups (ranking of treatment groups, highly significant difference): vehicle <Compound B-55<Pioglitazone
